Source: paper PMC7819943, “Rice protein-binding microarrays: a tool to detect cis-acting elements near promoter regions in rice”
The list shows a part of the results.

Molecular target: T1, OsSMF1 (Oryza sativa, UniProt Q6ZLB0 1-436)
T1 sequence: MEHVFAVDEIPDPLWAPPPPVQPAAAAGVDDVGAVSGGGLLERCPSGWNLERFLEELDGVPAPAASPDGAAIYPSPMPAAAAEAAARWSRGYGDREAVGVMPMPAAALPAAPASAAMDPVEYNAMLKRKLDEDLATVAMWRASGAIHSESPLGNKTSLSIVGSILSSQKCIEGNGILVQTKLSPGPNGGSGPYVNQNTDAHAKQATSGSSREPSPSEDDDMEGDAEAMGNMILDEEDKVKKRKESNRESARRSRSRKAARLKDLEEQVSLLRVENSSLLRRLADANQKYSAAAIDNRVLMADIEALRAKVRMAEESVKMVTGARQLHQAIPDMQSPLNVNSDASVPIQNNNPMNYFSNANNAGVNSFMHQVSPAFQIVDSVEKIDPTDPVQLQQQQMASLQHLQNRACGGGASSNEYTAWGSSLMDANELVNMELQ
Test: protein-binding microarray (RPBM); PBS, 2% BSA, 51.3 ng/ul salmon testes DNA, 50 uM zinc acetate, 200 nM TF, 25 C, 1 h; high values mean tight binding
Details: protein: recombinant; tags: N-terminal polyhistidine and DsRed monomer fusion (pET32a); chain copies: 2; label: CyDye5-dUTP incorporated in the synthesized complementary strand; 3' TTTTT single-stranded linker to array surface; dsDNA, one strand shown
Summary of the method: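 Binding signal here means per-feature fluorescence intensity in arbitrary units. The values were read on an Axon 4000B scanner after a custom Agilent array, double-stranded by primer extension with Cy5-dUTP, was incubated with 200 nM protein at 25 °C for 1 h in PBS with 2% BSA, salmon testes DNA and 50 µM zinc acetate, then washed. The proteins were transcription factors with an N-terminal polyhistidine tag and DsRed, expressed in E. coli BL21-CodonPlus and purified on Ni–NTA.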

Going from “AGATATATGCATACGTGTTTAAAGCTTATCACTATATCAACGGAGTCACCTAGTGCAG” to “GATCCTCTCCATGTCAGCAGATGAAGCAGCAGCCATCCCGCGGAGTCACCTAGTGCAG”, the binding signal falls from 6090 fluorescence intensity (a.u.) to 5220 fluorescence intensity (a.u.).

First: TTATTGATACATGGCTGGGACGCCGCGACGTCACCGCTCCCGGAGTCACCTAGTGCAG
Second: GACACATGAGGGTCCACGTGTTATAGATAGTGAGTGGCAGCGGAGTCACCTAGTGCAG
The binding signal of the first is lower: 5060 fluorescence intensity (a.u.) for the first, 9820 fluorescence intensity (a.u.) for the second.

Compared with “AAGATGTGTCATACATGACATCTTACTTTATATTTCTTATCGGAGTCACCTAGTGCAG”, “AAGCCTCTTGTCGTCTCTTTGACCCAACGACCCCGCCATTCGGAGTCACCTAGTGCAG” is lower in binding signal: 3600 fluorescence intensity (a.u.) for the first, 3230 fluorescence intensity (a.u.) for the second.

Going from “TCAACACTGCCACGTAAGCACCACGTAAGCTAAAACCGCTCGGAGTCACCTAGTGCAG” to “CCTCCACCCTCACCGGCGCCACGCCGACGCCTCCGCCCTCCGGAGTCACCTAGTGCAG”, the binding signal falls from 27100 fluorescence intensity (a.u.) to 5600 fluorescence intensity (a.u.).

Going from “GCTAACCAATTGAGAATCATCGACGTTGTGTCATCTTGTGCGGAGTCACCTAGTGCAG” to “CTTGCAAGGTGTTGGATTCGACTTGTATAACTTGAACTGCCGGAGTCACCTAGTGCAG”, the binding signal falls from 4250 fluorescence intensity (a.u.) to 3520 fluorescence intensity (a.u.).

Compared with “TCCCTCCTCCCCGTCGTCACAAGCCACGTCATCGATCCGCCGGAGTCACCTAGTGCAG”, “TCTTCTTTCTTGGTGGTGGTGAGTGTACTGCCTTTATCTGCGGAGTCACCTAGTGCAG” is lower in binding signal: 40000 fluorescence intensity (a.u.) for the first, 3440 fluorescence intensity (a.u.) for the second.

First: TCCTCACCTTCCTGCGCCTGAAAAGTTGGGGCCAATCCGGCGGAGTCACCTAGTGCAG
Second: GACACCACCGCCGCCGCCGTCCTCGTCATCTCCAGATCGCCGGAGTCACCTAGTGCAG
The binding signal of the first is lower: 3460 fluorescence intensity (a.u.) for the first, 9120 fluorescence intensity (a.u.) for the second.

Going from “GGATCCGTACGTGAGGGTGGGCCCCACACGTCAGCGAGGCCGGAGTCACCTAGTGCAG” to “CCTTTTGTCGATAAGTCACGATCATCAACTGAGAGCATTCCGGAGTCACCTAGTGCAG”, the binding signal rises from 12600 fluorescence intensity (a.u.) to 19300 fluorescence intensity (a.u.).

First: AGAGAAGAGAGAAGAGAGAAGTGACGGGTGGGTCCCACGTCGGAGTCACCTAGTGCAG
Second: AAGCGTAATAGCTCATCTTTTATCATGCCTGGTCGACATGCGGAGTCACCTAGTGCAG
The binding signal of the first is lower: 3530 fluorescence intensity (a.u.) for the first, 4590 fluorescence intensity (a.u.) for the second.

Compared with “TAGTAGCGTTCGATACTTCGGTATCAATTATCAAACTTACCGGAGTCACCTAGTGCAG”, “ACAGTACCCGTACTTTCGTGCCACGCTGGCACCGACAAAGCGGAGTCACCTAGTGCAG” is higher in binding signal: 3490 fluorescence intensity (a.u.) for the first, 9790 fluorescence intensity (a.u.) for the second.

Compared with “AGGATGGGTTGATGGGAATGGAATATGACACGAGCCGTGTCGGAGTCACCTAGTGCAG”, “CACTTTAAGAGTTCTTCAATTTGTGTTTCACCGGGTTTCGCGGAGTCACCTAGTGCAG” is higher in binding signal: 3160 fluorescence intensity (a.u.) for the first, 3520 fluorescence intensity (a.u.) for the second.

In the case of “ATAACGGTGCTAATCTACTGGTGACTGTGCCTGGTGGTGGCGGAGTCACCTAGTGCAG”, the binding signal is reported as 4380 fluorescence intensity (a.u.).
